The other results are listed elsewhere or left out. The data scatter; read single values as rough.

By UniProt entry, the sequences of proteins in these tests, tags left out. Where a name states a change or a piece, a line headed by the entry shows the natural chain unless it says otherwise. Residues count along the entry.
UniProt Q96II8: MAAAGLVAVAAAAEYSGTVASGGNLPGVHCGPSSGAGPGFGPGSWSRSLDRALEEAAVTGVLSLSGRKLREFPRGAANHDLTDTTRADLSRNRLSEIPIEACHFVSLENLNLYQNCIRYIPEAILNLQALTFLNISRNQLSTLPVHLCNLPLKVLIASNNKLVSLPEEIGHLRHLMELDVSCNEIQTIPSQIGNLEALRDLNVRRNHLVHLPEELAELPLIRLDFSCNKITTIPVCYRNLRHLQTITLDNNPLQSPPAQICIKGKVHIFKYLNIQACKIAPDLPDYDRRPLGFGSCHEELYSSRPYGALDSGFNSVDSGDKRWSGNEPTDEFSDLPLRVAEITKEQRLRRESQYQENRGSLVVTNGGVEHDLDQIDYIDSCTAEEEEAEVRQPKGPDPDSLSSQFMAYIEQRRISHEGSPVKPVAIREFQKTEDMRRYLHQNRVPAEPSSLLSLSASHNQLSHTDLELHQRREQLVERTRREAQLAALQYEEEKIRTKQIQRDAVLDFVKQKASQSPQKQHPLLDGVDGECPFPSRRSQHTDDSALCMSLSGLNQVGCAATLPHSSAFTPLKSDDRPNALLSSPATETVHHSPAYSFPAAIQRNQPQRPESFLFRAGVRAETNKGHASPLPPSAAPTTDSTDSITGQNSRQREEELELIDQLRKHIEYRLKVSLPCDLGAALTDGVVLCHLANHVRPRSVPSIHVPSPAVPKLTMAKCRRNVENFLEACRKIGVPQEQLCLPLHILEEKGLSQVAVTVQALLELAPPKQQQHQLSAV
UniProt P49916: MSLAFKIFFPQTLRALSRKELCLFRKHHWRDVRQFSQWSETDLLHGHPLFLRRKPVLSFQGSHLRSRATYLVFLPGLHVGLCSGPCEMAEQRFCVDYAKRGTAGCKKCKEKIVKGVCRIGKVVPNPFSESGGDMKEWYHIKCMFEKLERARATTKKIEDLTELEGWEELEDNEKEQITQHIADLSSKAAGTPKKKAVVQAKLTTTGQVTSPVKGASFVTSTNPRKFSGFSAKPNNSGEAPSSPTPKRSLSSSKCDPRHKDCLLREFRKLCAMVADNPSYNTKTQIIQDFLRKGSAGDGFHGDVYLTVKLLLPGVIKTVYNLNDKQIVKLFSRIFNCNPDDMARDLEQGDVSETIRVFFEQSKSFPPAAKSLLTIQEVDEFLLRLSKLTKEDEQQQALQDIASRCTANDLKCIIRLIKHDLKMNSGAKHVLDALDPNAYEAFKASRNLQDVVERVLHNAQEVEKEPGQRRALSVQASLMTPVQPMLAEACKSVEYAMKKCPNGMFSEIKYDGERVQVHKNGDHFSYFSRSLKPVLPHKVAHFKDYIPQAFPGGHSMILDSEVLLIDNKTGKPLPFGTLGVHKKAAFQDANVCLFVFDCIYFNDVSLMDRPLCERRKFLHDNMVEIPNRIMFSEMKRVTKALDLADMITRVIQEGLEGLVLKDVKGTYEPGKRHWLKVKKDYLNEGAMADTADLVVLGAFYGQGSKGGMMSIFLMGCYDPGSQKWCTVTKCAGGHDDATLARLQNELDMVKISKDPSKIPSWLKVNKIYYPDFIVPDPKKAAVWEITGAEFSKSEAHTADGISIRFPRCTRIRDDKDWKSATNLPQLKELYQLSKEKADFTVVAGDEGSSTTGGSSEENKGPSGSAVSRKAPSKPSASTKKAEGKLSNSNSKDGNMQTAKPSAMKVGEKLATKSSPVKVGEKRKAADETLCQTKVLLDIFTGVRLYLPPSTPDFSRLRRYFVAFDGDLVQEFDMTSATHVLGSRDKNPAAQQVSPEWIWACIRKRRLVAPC
UniProt Q8NG31: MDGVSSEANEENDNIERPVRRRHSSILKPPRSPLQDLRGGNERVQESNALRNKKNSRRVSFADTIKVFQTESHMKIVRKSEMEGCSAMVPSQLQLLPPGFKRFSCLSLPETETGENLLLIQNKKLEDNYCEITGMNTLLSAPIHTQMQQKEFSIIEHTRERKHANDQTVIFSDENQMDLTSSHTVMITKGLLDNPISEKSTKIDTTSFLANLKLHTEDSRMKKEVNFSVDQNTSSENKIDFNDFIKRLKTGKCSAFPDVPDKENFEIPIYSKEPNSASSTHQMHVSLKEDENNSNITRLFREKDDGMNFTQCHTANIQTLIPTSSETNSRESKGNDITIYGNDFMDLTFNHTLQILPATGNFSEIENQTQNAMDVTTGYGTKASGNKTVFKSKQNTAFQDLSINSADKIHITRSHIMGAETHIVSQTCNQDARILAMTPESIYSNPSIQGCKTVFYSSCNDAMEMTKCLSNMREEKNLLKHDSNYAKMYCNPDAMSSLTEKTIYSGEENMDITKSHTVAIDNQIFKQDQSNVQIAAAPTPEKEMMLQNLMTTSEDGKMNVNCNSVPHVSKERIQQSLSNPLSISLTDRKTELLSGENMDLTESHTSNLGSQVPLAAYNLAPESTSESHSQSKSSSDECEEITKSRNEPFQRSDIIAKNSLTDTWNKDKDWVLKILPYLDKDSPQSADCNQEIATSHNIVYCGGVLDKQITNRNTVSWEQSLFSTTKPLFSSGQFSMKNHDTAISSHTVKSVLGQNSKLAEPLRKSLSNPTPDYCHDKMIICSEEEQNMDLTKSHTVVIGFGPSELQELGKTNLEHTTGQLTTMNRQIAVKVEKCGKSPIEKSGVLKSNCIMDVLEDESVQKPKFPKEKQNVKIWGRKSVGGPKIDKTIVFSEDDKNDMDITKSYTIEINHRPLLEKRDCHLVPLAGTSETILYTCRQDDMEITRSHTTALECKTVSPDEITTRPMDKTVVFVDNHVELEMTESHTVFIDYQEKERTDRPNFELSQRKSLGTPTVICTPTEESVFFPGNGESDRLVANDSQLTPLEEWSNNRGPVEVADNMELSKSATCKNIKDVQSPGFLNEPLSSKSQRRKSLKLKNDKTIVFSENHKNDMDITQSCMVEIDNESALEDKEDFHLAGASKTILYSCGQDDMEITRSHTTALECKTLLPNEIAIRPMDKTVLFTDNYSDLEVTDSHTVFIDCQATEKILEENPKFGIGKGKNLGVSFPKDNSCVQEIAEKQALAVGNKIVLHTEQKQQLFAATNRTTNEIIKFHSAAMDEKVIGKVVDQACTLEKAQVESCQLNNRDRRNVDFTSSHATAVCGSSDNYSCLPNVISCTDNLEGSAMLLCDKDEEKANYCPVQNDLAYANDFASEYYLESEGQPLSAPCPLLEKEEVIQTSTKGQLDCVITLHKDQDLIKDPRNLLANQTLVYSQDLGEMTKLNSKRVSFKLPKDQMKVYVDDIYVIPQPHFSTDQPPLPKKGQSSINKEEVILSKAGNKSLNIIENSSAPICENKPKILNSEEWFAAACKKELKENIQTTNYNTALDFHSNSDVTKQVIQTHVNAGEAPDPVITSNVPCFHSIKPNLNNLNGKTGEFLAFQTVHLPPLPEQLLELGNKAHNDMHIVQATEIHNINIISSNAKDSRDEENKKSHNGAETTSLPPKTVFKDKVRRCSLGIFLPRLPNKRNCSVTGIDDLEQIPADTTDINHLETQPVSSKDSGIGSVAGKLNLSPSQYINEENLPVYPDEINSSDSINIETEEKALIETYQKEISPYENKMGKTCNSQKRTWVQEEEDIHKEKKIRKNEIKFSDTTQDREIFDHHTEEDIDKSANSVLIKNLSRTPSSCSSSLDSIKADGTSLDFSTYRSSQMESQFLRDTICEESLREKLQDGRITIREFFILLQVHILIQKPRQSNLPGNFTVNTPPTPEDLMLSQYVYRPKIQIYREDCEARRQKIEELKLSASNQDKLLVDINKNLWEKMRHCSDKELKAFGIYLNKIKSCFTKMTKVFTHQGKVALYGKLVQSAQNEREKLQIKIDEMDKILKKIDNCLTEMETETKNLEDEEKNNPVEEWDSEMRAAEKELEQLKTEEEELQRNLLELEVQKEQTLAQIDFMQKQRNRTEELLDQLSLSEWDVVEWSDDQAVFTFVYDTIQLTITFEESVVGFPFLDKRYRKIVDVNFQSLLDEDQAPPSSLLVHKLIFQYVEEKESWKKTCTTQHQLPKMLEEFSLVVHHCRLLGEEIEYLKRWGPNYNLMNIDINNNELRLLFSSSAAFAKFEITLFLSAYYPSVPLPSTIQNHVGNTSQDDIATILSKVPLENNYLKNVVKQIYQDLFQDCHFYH
UniProt Q9BU23, 681-701: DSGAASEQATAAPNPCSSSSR
UniProt Q9Y2U8: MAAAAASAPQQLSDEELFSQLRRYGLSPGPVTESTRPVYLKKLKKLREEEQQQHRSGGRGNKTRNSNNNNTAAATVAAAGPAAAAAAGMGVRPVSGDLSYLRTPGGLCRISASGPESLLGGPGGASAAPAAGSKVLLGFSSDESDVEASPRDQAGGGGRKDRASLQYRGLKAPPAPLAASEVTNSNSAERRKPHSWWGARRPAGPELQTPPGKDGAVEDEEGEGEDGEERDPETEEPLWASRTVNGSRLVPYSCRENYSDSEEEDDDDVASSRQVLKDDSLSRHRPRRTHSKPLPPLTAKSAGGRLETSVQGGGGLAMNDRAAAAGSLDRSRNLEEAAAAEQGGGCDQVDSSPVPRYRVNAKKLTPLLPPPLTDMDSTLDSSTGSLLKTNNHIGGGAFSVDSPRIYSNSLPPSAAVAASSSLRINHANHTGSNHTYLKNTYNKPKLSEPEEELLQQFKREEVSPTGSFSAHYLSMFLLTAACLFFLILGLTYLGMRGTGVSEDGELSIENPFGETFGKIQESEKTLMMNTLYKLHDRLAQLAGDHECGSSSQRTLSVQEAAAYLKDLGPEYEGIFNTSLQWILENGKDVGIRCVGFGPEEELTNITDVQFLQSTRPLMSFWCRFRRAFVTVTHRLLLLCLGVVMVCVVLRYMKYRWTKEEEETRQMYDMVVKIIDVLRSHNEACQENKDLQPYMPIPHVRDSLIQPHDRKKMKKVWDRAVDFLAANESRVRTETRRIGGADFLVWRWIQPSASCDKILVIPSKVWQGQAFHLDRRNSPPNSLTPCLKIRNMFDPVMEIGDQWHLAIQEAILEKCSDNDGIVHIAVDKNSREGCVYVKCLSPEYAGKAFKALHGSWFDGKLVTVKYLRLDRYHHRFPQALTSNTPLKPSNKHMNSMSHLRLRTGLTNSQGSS
UniProt Q92615, whole entry, looked up: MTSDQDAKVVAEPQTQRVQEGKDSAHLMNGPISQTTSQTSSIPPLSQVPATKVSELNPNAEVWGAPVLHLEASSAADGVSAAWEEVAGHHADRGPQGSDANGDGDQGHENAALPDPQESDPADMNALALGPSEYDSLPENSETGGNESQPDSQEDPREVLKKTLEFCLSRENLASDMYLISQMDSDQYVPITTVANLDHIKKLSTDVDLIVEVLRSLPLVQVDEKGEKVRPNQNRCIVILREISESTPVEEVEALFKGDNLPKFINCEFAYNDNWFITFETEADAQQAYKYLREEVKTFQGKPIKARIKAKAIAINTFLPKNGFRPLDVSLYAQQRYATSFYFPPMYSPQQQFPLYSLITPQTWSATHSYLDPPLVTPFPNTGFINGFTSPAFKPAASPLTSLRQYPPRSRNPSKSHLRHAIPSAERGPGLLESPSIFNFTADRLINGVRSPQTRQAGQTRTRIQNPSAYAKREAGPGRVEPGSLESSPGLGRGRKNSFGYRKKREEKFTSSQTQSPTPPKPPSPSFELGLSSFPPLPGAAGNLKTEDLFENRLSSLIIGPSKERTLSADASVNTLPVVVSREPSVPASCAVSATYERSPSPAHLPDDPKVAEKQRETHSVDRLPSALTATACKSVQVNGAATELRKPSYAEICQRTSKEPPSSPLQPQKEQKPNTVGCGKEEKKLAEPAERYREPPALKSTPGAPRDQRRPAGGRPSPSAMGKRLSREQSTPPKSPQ
UniProt Q03164, 2071-2093: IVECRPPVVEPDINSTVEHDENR
UniProt P09382: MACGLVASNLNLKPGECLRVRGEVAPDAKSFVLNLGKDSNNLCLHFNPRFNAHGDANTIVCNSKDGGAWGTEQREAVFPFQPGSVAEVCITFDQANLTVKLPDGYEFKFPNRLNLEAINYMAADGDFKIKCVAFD
UniProt Q9NSK0: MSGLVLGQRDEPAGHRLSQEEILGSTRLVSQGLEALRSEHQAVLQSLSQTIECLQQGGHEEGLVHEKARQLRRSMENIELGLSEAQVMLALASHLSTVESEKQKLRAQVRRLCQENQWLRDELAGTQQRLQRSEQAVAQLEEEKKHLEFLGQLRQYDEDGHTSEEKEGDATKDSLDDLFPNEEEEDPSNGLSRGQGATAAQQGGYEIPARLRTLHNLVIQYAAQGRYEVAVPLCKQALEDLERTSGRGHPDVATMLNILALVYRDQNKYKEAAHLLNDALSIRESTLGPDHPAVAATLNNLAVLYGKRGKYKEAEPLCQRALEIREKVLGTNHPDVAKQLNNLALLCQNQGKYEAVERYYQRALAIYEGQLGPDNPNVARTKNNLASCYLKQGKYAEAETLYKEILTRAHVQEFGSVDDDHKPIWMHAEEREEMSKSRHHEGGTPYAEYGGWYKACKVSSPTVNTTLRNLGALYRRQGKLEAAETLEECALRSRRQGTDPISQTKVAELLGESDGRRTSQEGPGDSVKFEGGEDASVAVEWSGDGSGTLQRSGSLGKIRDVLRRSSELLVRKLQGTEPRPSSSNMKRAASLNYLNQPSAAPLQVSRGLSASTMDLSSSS
UniProt O14686, 1259-1283: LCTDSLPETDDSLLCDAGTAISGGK

Compound in the first assay: ClCC(=O)N[C@@H]1CCCc2ccccc12
Briefly: log2 mean competition ratio of IA-DTB cysteine labelling (DMSO/compound) (log2 ratio); higher = stronger cysteine engagement by compound. The conditions noted are these: 200 µM; treatment time: 4 h; cell line lysate: HEK293T. As for the experimental part: (§1)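 IA-DTB competitive cysteine chemoproteomics in HEK293T RIPA lysate. Lysates were treated with compound 29 or 30 at 50 or 200 µM for 4 h, then IA-DTB (500 µM, 1 h), trypsin-digested, NeutrAvidin-enriched and analysed by diaPASEF. Competition ratio = intensity DMSO / intensity compound (n=4 treated, n=64 DMSO); binding: mean log2 CR ≥ 1 and p ≤ 0.05 plus QC filters. Target is the cysteine site.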
LRCH3 C227 (UniProt Q96II8): the “log2 mean competition ratio” value was 0.144. The same measure, in the same setting: next, KMT2B C1268 (UniProt Q9UMN6): -0.0888. The same measure, in the same setting: next, LIG3 C929 (UniProt P49916): 0.0443; KNL1 C638 (UniProt Q8NG31): 0.14. On the same count and under the same terms, under LMF2 C696 (UniProt Q9BU23) stands 0.165. On to LRBA C832, for which the “log2 mean competition ratio” value was -0.114. The same measure, in the same setting: under LEMD3 C838 (UniProt Q9Y2U8) stands -0.0567; under KIT C691 (UniProt P10721), -0.0408. The same measure, in the same setting: next, LARP4B C679 (UniProt Q92615): -0.102; KTN1 C736: -0.188; LIG3 C336 (UniProt P49916): 0.102. On the same count and under the same terms, under KMT2A C2074 (UniProt Q03164) stands -0.248; under KNL1 C774 (UniProt Q8NG31), -0.0857; under LRPPRC C1043, -0.0255. With KLHL11 C526 (UniProt Q9NVR0), the “log2 mean competition ratio” value was -0.247. In the case of LAS1L C690 (UniProt Q9Y4W2), the “log2 mean competition ratio” value came to 0.241. On the same count and under the same terms, under KMT2A C1536 (UniProt Q03164) stands -0.0476; under KIFBP C583 (UniProt Q96EK5), -0.437. On the same count and under the same terms, next, LGALS1 C61 (UniProt P09382): -0.508.

Compound in another assay: ClCC(=O)N[C@H]1CCCc2ccccc12
Described as above. The settings on record: 50 µM; treatment time: 4 h; cell line lysate: HEK293T. As for the experimental part:
as §1
As to LEMD3 C108 (UniProt Q9Y2U8), the “log2 mean competition ratio” value was 0.213. Same read-out and setting: next, LNPK C149 (UniProt Q9C0E8): -0.852. On the same count and under the same terms, next, KLC4 C489 (UniProt Q9NSK0): -0.514; LETMD1 C218 (UniProt Q6P1Q0): -0.0367; LMNB2 C212 (UniProt Q03252): -0.802. Same read-out and setting: next, “KMT2D_(C1260,C1260,C1273,C1273) (UniProt O14686)”: -0.151; LPP C364 (UniProt Q93052): 0.254. Take LRCH4 C622 (UniProt O75427): the “log2 mean competition ratio” value is -0.114. With LARP4B C590 (UniProt Q92615), the “log2 mean competition ratio” value was 0.359. KNL1 C2051 (UniProt Q8NG31): the “log2 mean competition ratio” value is -0.0886.

With LIMS1 C138 (UniProt P48059), the “log2 mean competition ratio” value was 0.157. On the same count and under the same terms, under LIMS3;LIMS4 C10;(C10) stands 0.0666. The same measure, in the same setting: next, KTN1 C1105: -0.158; LATS2 C813 (UniProt Q9NRM7): -0.467. Still for that read-out and setting: under LIMS1 C300 (UniProt P48059) stands -0.386. Turning to KNTC1 C967 (UniProt P50748), the “log2 mean competition ratio” value was -0.0277.

With LRPPRC C130, the “log2 mean competition ratio” value is -0.314. The same measure, in the same setting: next, LONRF2 C220 (UniProt Q1L5Z9): -0.142. Still for that read-out and setting: next, LRCH3 C227 (UniProt Q96II8): 0.0835; KMT2B C1268 (UniProt Q9UMN6): -0.369.

On to LIG3 C929 (UniProt P49916), for which the “log2 mean competition ratio” value is -0.0815.

For KNL1 C638 (UniProt Q8NG31), the “log2 mean competition ratio” value is -0.308. In the case of LMF2 C696 (UniProt Q9BU23), the “log2 mean competition ratio” value was -0.198.

Regarding LRBA C832, the “log2 mean competition ratio” value is -0.0975. On the same count and under the same terms, next, LEMD3 C838 (UniProt Q9Y2U8): 0.0526; KIT C691 (UniProt P10721): -0.424. On to LARP4B C679 (UniProt Q92615), for which the “log2 mean competition ratio” value was -0.0457. On to KTN1 C736, for which the “log2 mean competition ratio” value was 0.0253. The same measure, in the same setting: next, LIG3 C336 (UniProt P49916): 0.229. KMT2A C2074 (UniProt Q03164): the “log2 mean competition ratio” value was -0.312. The same measure, in the same setting: under KNL1 C774 (UniProt Q8NG31) stands 0.211.

LRPPRC C1043: the “log2 mean competition ratio” value was found to be 0.804.

Regarding KLHL11 C526 (UniProt Q9NVR0), the “log2 mean competition ratio” value was -0.266. The same measure, in the same setting: under LAS1L C690 (UniProt Q9Y4W2) stands 0.0326; under KMT2A C1536 (UniProt Q03164), -0.41; under KIFBP C583 (UniProt Q96EK5), -0.0081. On the same count and under the same terms, next, LGALS1 C61 (UniProt P09382): 0.0622.

The values above are taken from the supplement of paper PMC11732987, “Enantioselective OTUD7B fragment discovery through chemoproteomics screening and high-throughput optimisation” (Communications Chemistry, 2025).
